Reference: patent US10947272B2, “BACE1 inhibitor peptides” (HOFFMANN-LA ROCHE INC., priority 2015, dated 2021)
These are yes or no findings as the source states them, for the method shown. Some entries that bind do so weakly or less than the wild type.

By UniProt entry, the sequences of proteins in these tests, tags left out. Residues count along the entry.
UniProt P56817, residues 46-460: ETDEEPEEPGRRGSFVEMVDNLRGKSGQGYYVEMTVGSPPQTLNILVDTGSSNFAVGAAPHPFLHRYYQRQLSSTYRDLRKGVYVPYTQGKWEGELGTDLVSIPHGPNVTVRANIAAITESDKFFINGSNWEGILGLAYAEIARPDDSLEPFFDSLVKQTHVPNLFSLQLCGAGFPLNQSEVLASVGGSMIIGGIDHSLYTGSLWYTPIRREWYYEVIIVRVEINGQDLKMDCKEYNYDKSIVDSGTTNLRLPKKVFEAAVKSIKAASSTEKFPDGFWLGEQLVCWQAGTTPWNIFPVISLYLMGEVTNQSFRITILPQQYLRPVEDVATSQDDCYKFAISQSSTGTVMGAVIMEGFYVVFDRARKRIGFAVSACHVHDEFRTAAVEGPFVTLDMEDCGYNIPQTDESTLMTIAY

What follows are binders tested against BACE1 enzyme (WT1-13-2), biotinylated (UniProt P56817) (assay: extension peptide array, biotinylated BACE1 detected with streptavidin-Cy5).

| binding | Binder |
| --- | --- |
| binds | DYPKFLP [DYPKFLP (extension array peptide)] |
| binds | SYPKFID [SYPKFID (extension array peptide)] |
| binds | DYPKFIS [DYPKFIS (extension array peptide)] |

The binders below were run against BACE1 enzyme (WT1-13-2), biotinylated (UniProt P56817) (assay: 5-mer peptide array, biotinylated BACE1 detected with streptavidin-Cy5; the words stand in paragraph 143, the motif in the table).

| binding | Binder |
| --- | --- |
| binds | ARFIP [ARFIP core motif (5-mer array peptide)] |

What follows are binders tested against BACE1 enzyme (WT1-13-2), biotinylated (UniProt P56817) (assay: extension peptide array, biotinylated BACE1 detected with streptavidin-Cy5; the words stand in paragraph 147, the sequence in the table).

| binding | Binder |
| --- | --- |
| binds | DYPKFLP [DYPKFLP (extension array peptide)] |
| binds | QYPYFKPA [QYPYFKPA (extension array peptide)] |
| binds | SYPKFID [SYPKFID (extension array peptide)] |
| binds | TGARFIPAN [… (extension array peptide)] |
| binds | YPYFKPAS [YPYFKPAS (extension array peptide)] |
| binds | DYPKFIS [DYPKFIS (extension array peptide)] |
| binds | YPYFKPA [YPYFKPA (extension array peptide)] |
| binds | YPTFKPA [YPTFKPA (extension array peptide)] |

Each binder was assayed against BACE1 enzyme (WT1-13-2), biotinylated (UniProt P56817) (assay: double substitution/deletion peptide array, biotinylated BACE1 detected with streptavidin-Cy5; the words stand in paragraph 151, the sequence in the table).

| binding | Binder |
| --- | --- |
| binds | GDYPKFIPAS |
| binds | YPTFKPANGS |
| binds | GDYPKFISAN |
| binds | STGARFIPAN |
| binds | QQYPYFKPAN |
| binds | GSYPKFIDAN |
